# Some of the results follow. These are further read-outs of the screen, such as a control signal, another cell line or another target. No call is given for them. Compounds called inactive in the main read-out are mostly missing here. The note in brackets gives the kind of curve behind each potency; many fits are weak.
# Experiment: IkB Signaling
# Details: ABC-DLBCL IkBa-CBG/CBR dual luciferase ratio (green luciferase fused to IkBa over red control in OCI-Ly3 lymphoma cells), 4 h
# How it was run: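 In this assay, an IκBα–CBG68 fusion accumulates when IKK-driven degradation is blocked; native CBR normalizes for cell number. OCI-Ly3 cells were treated 4 h with compound and doxycycline, then green and red light read after Chroma-Glo addition.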
# [1] = measured here: control luc red channel unless noted
# [2] = measured here: IkB-luc green channel
# [3] = measured here: control luc red channel
structure (smiles),measurement,setting,value
COc1ccc(CCN2C(=O)CN(C3CCC(C)CC3)C(=O)C2c2ccc(OC(C)C)c(OC)c2)cc1OC (centres undefined),AC50,[1],"0.501 µM [falling, full curve]"
Cc1ccccc1C(=O)c1cccn1CC(=O)NCc1cccc(Cl)c1,AC50,[1],"20 µM [falling, single point]"
Cn1c(SCc2ccccc2F)nc2c([nH]c3ccccc32)c1=O,AC50,[1],"0.794 µM [rising, full curve]"
COCCN(CCOC)c1ncnc2c1c(-c1ccccc1)cn2-c1ccc(C)c(Cl)c1,AC50,[1],"3.98 µM [rising, partial curve, poor fit]"
CCCCNC(=O)C(CC)Sc1nc2ccccc2c(=O)n1CCc1ccc(OC)c(OC)c1 (centres undefined),AC50,[1],"3.16 µM [rising, partial curve, poor fit]"
CCOC(=O)c1ccc(NC(=O)c2nn(C)c3c2COc2ccccc2-3)cc1,AC50,[1],"6.31 µM [falling, partial curve]"
CC(C)c1ccc(OCc2cc(=O)n3c(-c4ccccc4)csc3n2)cc1,AC50,[1],"2 µM [rising, partial curve]"
CN1CCN(C(CNC(=O)C(=O)Nc2cccc(Cl)c2)c2ccc3c(c2)OCO3)CC1 (centres undefined),AC50,[1],"7.94 µM [falling, partial curve, poor fit]"
CC1=C(C(=O)Nc2ccc(C)cc2C)C(c2ccccc2F)n2nc(SCC(=O)c3ccc(C)cc3)nc2N1 (centres undefined),AC50,[1],"39.8 µM [falling, single point]"
CCc1ccc(NC(=O)c2cnc3sc(N4CCCC4)nn3c2=O)cc1,AC50,[1],"3.98 µM [rising, partial curve]"
COc1ccccc1NC(=O)C1CCC(CNS(=O)(=O)c2ccc3c(c2)CC(C)N3C(C)=O)CC1 (centres undefined),AC50,[1],"25.1 µM [falling, partial curve]"
Cc1noc(C)c1COC(=O)c1ccccc1Sc1ccccc1C#N,AC50,[1],"39.8 µM [falling, single point]"
CCc1ccc(NC(=O)Cn2c(-c3cncs3)nc3ccccc32)cc1,AC50,[1],"39.8 µM [falling, single point]"
CCn1c2ccccc2c2cc(CN3CCN(Cc4ccccc4C)CC3)ccc21,AC50,[1],"25.1 µM [falling, single point]"
O=C(c1ccc2c(c1)N(Cc1cccc(Cl)c1)C(=O)c1ccccc1S2)N1CCOCC1,AC50,[1],"39.8 µM [falling, partial curve]"
c1ccc(OCCn2c(COc3ccccc3)nc3ccccc32)cc1,AC50,[1],"1.26 µM [falling, partial curve]"
Cc1ccc(C(=O)COc2cccc(NC(=O)c3ccco3)c2)cc1,AC50,[1],"25.1 µM [falling, partial curve]"
O=C(NCC1CCCO1)C1CCCN(S(=O)(=O)c2cccc3nsnc23)C1 (centres undefined),AC50,[2],"7.94 µM [rising, single point]"
same,AC50,[3],"6.31 µM [falling, partial curve]"
O=C1c2oc3ccccc3c(=O)c2C(c2cccc(Cl)c2)N1c1ccccn1 (centres undefined),AC50,[1],"10 µM [falling, partial curve]"
CCOc1ccc(NC(=O)Cn2cc(C(=O)c3ccc(OCC)cc3)c(=O)c3cc4c(cc32)OCCO4)cc1,AC50,[1],"0.501 µM [rising, full curve, poor fit]"
Cc1ccc(CCNC(=O)c2cc3cc4cc(C)ccc4nc3s2)cc1,AC50,[1],"2.51 µM [falling, full curve]"
COc1cc(C2=NOC(C(=O)N3CCN(c4ccc(F)cc4)CC3)C2)cc(OC)c1OC (centres undefined),AC50,[1],"12.6 µM [falling, partial curve]"
COc1ccccc1Cn1c(CNS(=O)(=O)c2ccc(CC(C)C)cc2)nc2cccnc21,AC50,[1],"25.1 µM [falling, single point]"
COc1cccc(N2C(=O)C(CC(=O)Nc3ccc(F)cc3)N(CCC3=CCCCC3)C2=O)c1 (centres undefined),AC50,[1],"20 µM [falling, partial curve]"
O=C1C2=C(Nc3ccccc3SC2c2ccc(Cl)c(Cl)c2)c2ccccc21 (centres undefined),AC50,[1],"6.31 µM [falling, partial curve]"
COC(=O)Cc1c(C)c2cc3c(c(C)c2oc1=O)OCN(CCc1ccc(F)cc1)C3,AC50,[1],"15.8 µM [falling, single point]"
Nc1c(C(=O)NCc2ccc3c(c2)OCO3)nnn1CC(=O)Nc1ccc(Br)cc1,AC50,[1],"2 µM [falling, partial curve]"
CC(=O)N1CCCc2cc(S(=O)(=O)N3CCCC(C(=O)NCc4ccccc4)C3)ccc21 (centres undefined),AC50,[1],"0.2 µM [falling, full curve, poor fit]"
CCc1ccc(-c2cc(C)no2)cc1S(=O)(=O)Nc1ccc(Cl)cn1,AC50,[1],"39.8 µM [falling, single point]"
Cc1ccc(Cn2cc(C(=O)c3ccc(C)cc3)c(=O)c3ccc(C)nc32)cc1,AC50,[1],"39.8 µM [falling, single point]"
Cn1c(COc2ccc(Cl)cc2)nnc1SCc1ncc(-c2ccccc2)o1,AC50,[1],"15.8 µM [falling, partial curve]"
COc1ccc(/C=C/C(=O)N2CCC(c3nc4ccccc4o3)CC2)cc1,AC50,[1],"0.158 µM [falling, full curve]"
CCOc1ccc(N(CC)S(=O)(=O)N2CCCC(C(=O)Nc3ccc(NC(C)=O)cc3)C2)cc1 (centres undefined),AC50,[1],"20 µM [falling, single point]"
COc1cccc(C(=O)Nc2cc(-c3ccccc3)nn2-c2ccccc2)c1,AC50,[1],"31.6 µM [falling, single point]"
O=C(COc1ccc2oc3c(c2c1)CCCC3)Nc1ccc(Cl)cc1,AC50,[1],"12.6 µM [falling, partial curve]"
CCOc1ccc(-c2c(C)nn3c(-c4ccccc4)c(C(=O)NCCOC)cnc23)cc1OCC,AC50,[1],"20 µM [falling, single point]"
O=C(Nc1ccc2c(c1)oc1ccccc12)c1cccnc1,AC50,[1],"20 µM [falling, single point]"
CC1CCC/C(=C\Nc2ccccc2C(=O)O)C1=O (centres undefined),AC50,[1],"12.6 µM [falling, partial curve]"
CCN(C(=O)Cn1c(SCC(=O)NCc2ccccc2)nc2ccccc21)c1cccc(C)c1,AC50,[1],"25.1 µM [falling, partial curve]"
Cc1ccc(-n2nc(C(=O)NCCc3cccc(C)c3)c3c4ccccc4n(C)c3c2=O)cc1,AC50,[1],"0.158 µM [falling, full curve, poor fit]"
COc1ccc(OC)c(CNC(=O)c2cc(-c3ccc(Cl)s3)nc3ccccc23)c1,AC50,[1],"3.16 µM [falling, full curve, poor fit]"
COc1cc(-c2nc3n(n2)C(c2ccc(F)cc2)C(C(N)=O)=C(C)N3)cc(OC)c1OC (centres undefined),AC50,[1],"31.6 µM [falling, single point]"
Cc1cc(C)n(-c2ncc(-c3ccccc3)nn2)n1,AC50,[1],"25.1 µM [falling, single point]"
Cc1ccc(N2C(=O)c3oc4cc(C)c(C)cc4c(=O)c3C2c2cccc(O)c2)nc1 (centres undefined),AC50,[1],"12.6 µM [falling, partial curve]"
CCCN(CCC)C(=O)c1c[nH]c2ccc(S(=O)(=O)Nc3cc(C)cc(C)c3)cc2c1=O,AC50,[1],"12.6 µM [falling, partial curve]"
COc1ccc(N2CCN(C(=O)CSc3nnnn3-c3ccc4c(c3)OCCO4)CC2)cc1,AC50,[1],"31.6 µM [falling, single point]"
CCOc1ccccc1-n1c(CN2CCN(C(=O)c3ccco3)CC2)nc2ccccc2c1=O,AC50,[1],"39.8 µM [falling, single point]"
COc1ccc(C)cc1S(=O)(=O)Nc1cccc(-c2ccc(N3CCC(C)CC3)nn2)c1,AC50,[1],"3.98 µM [falling, partial curve]"
CCOc1cccc2cc(C(=O)N3CCN(C/C=C/c4ccccc4)CC3)c(=O)oc12,AC50,[1],"3.98 µM [falling, partial curve]"
CCOC(=O)c1cc(S(=O)(=O)Nc2ccc(OC(F)(F)F)cc2)[nH]n1,AC50,[1],"20 µM [falling, partial curve]"
Nc1c(S(=O)(=O)c2cccs2)c2nc3ccccc3nc2n1/N=C/c1cccc(O)c1,AC50,[1],"2 µM [falling, full curve]"
Cc1cccc2cc3c(nc12)SC(=NCC1CCCO1)N(Cc1ccco1)C3 (centres undefined),AC50,[2],"2.51 µM [rising, partial curve]"
same,AC50,[3],"15.8 µM [falling, partial curve]"
Cn1c(C(=O)NCc2ccc(F)cc2)cc2cc(S(=O)(=O)N3CCCCC3)ccc21,AC50,[1],"12.6 µM [falling, partial curve]"
CN(c1ccccc1)C(CNS(=O)(=O)c1ccccc1)c1ccccc1 (centres undefined),AC50,[1],"25.1 µM [falling, partial curve]"
CCOC(=O)c1oc2cc(O)ccc2c(=O)c1-c1ccccc1OC,AC50,[1],"1 µM [falling, full curve]"
CC(OC(=O)c1cc2sccc2n1C)C(=O)NCc1cccs1 (centres undefined),AC50,[1],"31.6 µM [falling, partial curve]"
Cc1ccc(CN(Cc2ccco2)C(=O)c2cccc(C)c2)cc1,AC50,[1],"31.6 µM [falling, single point]"
CNS(=O)(=O)c1cn(CC(=O)N2CCN(c3ccc(C)cc3C)CC2)cc1S(=O)(=O)NC,AC50,[1],"25.1 µM [falling, partial curve, poor fit]"
Cc1ccc(C)c(NC(=O)CSc2nnc(C)n3c2cc2occc23)c1,AC50,[1],"15.8 µM [falling, partial curve]"
COc1ccc(C2c3c(-c4ccccc4O)n[nH]c3C(=O)N2CCc2ccccc2)cc1 (centres undefined),AC50,[1],"10 µM [falling, partial curve]"
CCC(C(=O)OC)n1nnc2sc(-c3ccccc3)cc2c1=O (centres undefined),AC50,[1],"15.8 µM [falling, partial curve]"
CCOC(=O)c1ccc(CN(Cc2ccc(Br)cc2)S(=O)(=O)c2cccc(C(F)(F)F)c2)cc1,AC50,[1],"0.251 µM [falling, partial curve]"

# Two records drawn at random from the list so far:
structure (smiles),measurement,setting,value
CN(c1ccccc1)C(CNS(=O)(=O)c1ccccc1)c1ccccc1 (centres undefined),AC50,[1],"25.1 µM [falling, partial curve]"
Cc1ccc(Cn2cc(C(=O)c3ccc(C)cc3)c(=O)c3ccc(C)nc32)cc1,AC50,[1],"39.8 µM [falling, single point]"

# Three entries from above, bar-delimited:
structure (smiles) | measurement | setting | value
Cc1ccc(C)c(NC(=O)CSc2nnc(C)n3c2cc2occc23)c1 | AC50 | [1] | 15.8 µM [falling, partial curve]
COc1ccc(C2c3c(-c4ccccc4O)n[nH]c3C(=O)N2CCc2ccccc2)cc1 (centres undefined) | AC50 | [1] | 10 µM [falling, partial curve]
CCC(C(=O)OC)n1nnc2sc(-c3ccccc3)cc2c1=O (centres undefined) | AC50 | [1] | 15.8 µM [falling, partial curve]

# — PubChem BioAssay AID445 (National Center for Advancing Translational Sciences (NCATS), 2006)
